For experiment [1], the target named is T1, Myc-Smo (Smoothened, full-length) (Drosophila) (UniProt P91682).
T1 sequence: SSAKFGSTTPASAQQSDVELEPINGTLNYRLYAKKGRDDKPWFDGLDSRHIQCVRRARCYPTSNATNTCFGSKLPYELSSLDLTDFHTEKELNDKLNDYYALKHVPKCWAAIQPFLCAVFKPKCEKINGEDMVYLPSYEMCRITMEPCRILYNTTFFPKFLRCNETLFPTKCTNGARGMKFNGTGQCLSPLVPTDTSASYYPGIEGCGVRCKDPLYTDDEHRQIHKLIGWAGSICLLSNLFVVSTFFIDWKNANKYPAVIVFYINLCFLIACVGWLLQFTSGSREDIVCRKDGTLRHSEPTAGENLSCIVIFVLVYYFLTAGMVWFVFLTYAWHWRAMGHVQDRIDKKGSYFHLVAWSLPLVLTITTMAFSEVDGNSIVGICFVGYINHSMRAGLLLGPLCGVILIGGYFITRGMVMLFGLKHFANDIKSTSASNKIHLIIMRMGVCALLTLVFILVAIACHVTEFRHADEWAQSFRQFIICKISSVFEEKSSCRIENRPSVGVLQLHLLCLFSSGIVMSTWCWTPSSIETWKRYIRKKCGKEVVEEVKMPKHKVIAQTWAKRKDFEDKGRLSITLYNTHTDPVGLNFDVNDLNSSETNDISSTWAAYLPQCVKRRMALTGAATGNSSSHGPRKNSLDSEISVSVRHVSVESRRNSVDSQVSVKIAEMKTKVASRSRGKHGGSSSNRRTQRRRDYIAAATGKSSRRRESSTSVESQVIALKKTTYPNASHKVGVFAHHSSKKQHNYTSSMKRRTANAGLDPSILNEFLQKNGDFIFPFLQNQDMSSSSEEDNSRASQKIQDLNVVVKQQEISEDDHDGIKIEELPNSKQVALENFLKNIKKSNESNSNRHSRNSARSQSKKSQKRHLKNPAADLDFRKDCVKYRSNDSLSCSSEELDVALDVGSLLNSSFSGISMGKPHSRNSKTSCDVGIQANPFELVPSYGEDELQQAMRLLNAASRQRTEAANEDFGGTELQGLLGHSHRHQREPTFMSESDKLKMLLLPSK
As to the kind of experiment: condition: only cells treated with okadaic acid (OA); co-IP; S2 cells transfected with HA-Hrs and Myc-Smo or Myc-Smo^SD123, treated with okadaic acid (OA); immunoprecipitation with anti-Myc, blot with anti-HA.

Experiment [2] deals with T1, Myc-Smo (Smoothened, full-length) (Drosophila). As to the kind of experiment: co-IP; S2 cells co-transfected; lysis buffer 100 mM NaCl, 50 mM Tris.HCl pH8.0, 1.5 mM EDTA, 10% glycerol, 1% NP-40; immunoprecipitation with anti-Myc and protein A resin, western blot with anti-HA, anti-Hrs or anti-Flag; MG132 and NH4Cl to block Smo degradation; some samples with HhN-conditioned medium, USP8 overexpression or RNAi, Hrs overexpression or RNAi.

For experiment [3] the target is unchanged. As to the kind of experiment: co-IP; not shown: HrsCT1 with the series of Smo deletions.

These are yes or no findings as the source states them, for the method shown. In cells and extracts the contact can be indirect. Some entries that bind do so weakly or less than the wild type. Where a sequence is shown, tags or fusion partners need not be part of it.

B1: HA-Hrs (full-length Hrs) (protein, UniProt Q960X8 1-760)
chain: MFRSSFDKNLENATSHLRLEPDWPSILLICDEINQKDVTPKNAFAAIKKKMNSPNPHSSCYSLLVLESIVKNCGAPVHEEVFTKENCEMFSSFLESTPHENVRQKMLELVQTWAYAFRSSDKYQAIKDTMTILKAKGHTFPELREADAMFTADTAPNWADGRVCHRCRVEFTFTNRKHHCRNCGQVFCGQCTAKQCPLPKYGIEKEVRVCDGCFAALQRPTSGSGGAKSGPRPADSELPAEYLNSTLAQQVQTPARKTEQELKEEEELQLALALSQSEAEQQKPKLQSLPPAAYRMQQRSPSPEAPPEPKEYHQQPEEATNPELAKYLNRSYWEQRKISESSSMASPSAPSPMPPTPQPQQIMPLQVKSADEVQIDEFAANMRTQVEIFVNRMKSNSSRGRSISNDSSVQTLFMTLTSLHSQQLSYIKEMDDKRMWYEQLQDKLTQIKDSRAALDQLRQEHVEKLRRIAEEQERQRQMQMAQKLDIMRKKKQEYLQYQRQLALQRIQEQEREMQLRQEQQKAQYLMGQSAPPFPYMPPSAVPQHGSPSHQLNNVYNPYAAGVPGYLPQGPAPAPNGHGQFQAIPPGMYNPAIQQPMPPNLQPGGLMQQPAPPGNPQMMPPMPENQFANNPAAILQLPQQHSIAQPPQIPFQPQPQQIPGQQPQQIPGQQPQQIPGQQPQQIPGQQPQQIPVQQPQPQPQMGHVMLQQHQAPPAAQAPPVTEIANNQVQAVAAAPAPPQNEPGPAPVKAEEPATAELISFD
Turning to B1, the binding result is “no binding” in experiment [1] and “binds” in experiment [2].

B2: endogenous Hrs (protein, UniProt Q960X8 1-760)
chain: MFRSSFDKNLENATSHLRLEPDWPSILLICDEINQKDVTPKNAFAAIKKKMNSPNPHSSCYSLLVLESIVKNCGAPVHEEVFTKENCEMFSSFLESTPHENVRQKMLELVQTWAYAFRSSDKYQAIKDTMTILKAKGHTFPELREADAMFTADTAPNWADGRVCHRCRVEFTFTNRKHHCRNCGQVFCGQCTAKQCPLPKYGIEKEVRVCDGCFAALQRPTSGSGGAKSGPRPADSELPAEYLNSTLAQQVQTPARKTEQELKEEEELQLALALSQSEAEQQKPKLQSLPPAAYRMQQRSPSPEAPPEPKEYHQQPEEATNPELAKYLNRSYWEQRKISESSSMASPSAPSPMPPTPQPQQIMPLQVKSADEVQIDEFAANMRTQVEIFVNRMKSNSSRGRSISNDSSVQTLFMTLTSLHSQQLSYIKEMDDKRMWYEQLQDKLTQIKDSRAALDQLRQEHVEKLRRIAEEQERQRQMQMAQKLDIMRKKKQEYLQYQRQLALQRIQEQEREMQLRQEQQKAQYLMGQSAPPFPYMPPSAVPQHGSPSHQLNNVYNPYAAGVPGYLPQGPAPAPNGHGQFQAIPPGMYNPAIQQPMPPNLQPGGLMQQPAPPGNPQMMPPMPENQFANNPAAILQLPQQHSIAQPPQIPFQPQPQQIPGQQPQQIPGQQPQQIPGQQPQQIPGQQPQQIPVQQPQPQPQMGHVMLQQHQAPPAAQAPPVTEIANNQVQAVAAAPAPPQNEPGPAPVKAEEPATAELISFD
As to B2, in experiment [2], the binding entry was “binds”.

B3: HA-HrsCT1 (domain or fragment, UniProt Q960X8 1-240)
chain: MFRSSFDKNLENATSHLRLEPDWPSILLICDEINQKDVTPKNAFAAIKKKMNSPNPHSSCYSLLVLESIVKNCGAPVHEEVFTKENCEMFSSFLESTPHENVRQKMLELVQTWAYAFRSSDKYQAIKDTMTILKAKGHTFPELREADAMFTADTAPNWADGRVCHRCRVEFTFTNRKHHCRNCGQVFCGQCTAKQCPLPKYGIEKEVRVCDGCFAALQRPTSGSGGAKSGPRPADSELPA
Take B3: the binding result in experiment [2] and in experiment [3] was “binds” each time.

B4: HA-Hrs^ΔU (protein, UniProt Q960X8)
chain: MFRSSFDKNLENATSHLRLEPDWPSILLICDEINQKDVTPKNAFAAIKKKMNSPNPHSSCYSLLVLESIVKNCGAPVHEEVFTKENCEMFSSFLESTPHENVRQKMLELVQTWAYAFRSSDKYQAIKDTMTILKAKGHTFPELREADAMFTADTAPNWADGRVCHRCRVEFTFTNRKHHCRNCGQVFCGQCTAKQCPLPKYGIEKEVRVCDGCFAALQRPTSGSGGAKSGPRPADSELPAEYLNSTLAQQVQTPARKTEQEKPKLQSLPPAAYRMQQRSPSPEAPPEPKEYHQQPEEATNPELAKYLNRSYWEQRKISESSSMASPSAPSPMPPTPQPQQIMPLQVKSADEVQIDEFAANMRTQVEIFVNRMKSNSSRGRSISNDSSVQTLFMTLTSLHSQQLSYIKEMDDKRMWYEQLQDKLTQIKDSRAALDQLRQEHVEKLRRIAEEQERQRQMQMAQKLDIMRKKKQEYLQYQRQLALQRIQEQEREMQLRQEQQKAQYLMGQSAPPFPYMPPSAVPQHGSPSHQLNNVYNPYAAGVPGYLPQGPAPAPNGHGQFQAIPPGMYNPAIQQPMPPNLQPGGLMQQPAPPGNPQMMPPMPENQFANNPAAILQLPQQHSIAQPPQIPFQPQPQQIPGQQPQQIPGQQPQQIPGQQPQQIPGQQPQQIPVQQPQPQPQMGHVMLQQHQAPPAAQAPPVTEIANNQVQAVAAAPAPPQNEPGPAPVKAEEPATAELISFD
As for B4, in experiment [2], the binding result is “binds”.

B5: Hrs region aa 1-300 (VHS, FYVE and UIM domains), HA-tagged truncation (domain or fragment, UniProt Q960X8 1-300)
chain: MFRSSFDKNLENATSHLRLEPDWPSILLICDEINQKDVTPKNAFAAIKKKMNSPNPHSSCYSLLVLESIVKNCGAPVHEEVFTKENCEMFSSFLESTPHENVRQKMLELVQTWAYAFRSSDKYQAIKDTMTILKAKGHTFPELREADAMFTADTAPNWADGRVCHRCRVEFTFTNRKHHCRNCGQVFCGQCTAKQCPLPKYGIEKEVRVCDGCFAALQRPTSGSGGAKSGPRPADSELPAEYLNSTLAQQVQTPARKTEQELKEEEELQLALALSQSEAEQQKPKLQSLPPAAYRMQQRS
As to B5, the binding result in experiment [2] is reported as “binds”.

The values above are taken from PMC3823941.
